Protein sequences, listed by entry. Tags and fused reporters are not part of them. Lines headed by an entry give the natural chain unless they say otherwise; changes in a name come on top.
UniProt A0AA48WN41: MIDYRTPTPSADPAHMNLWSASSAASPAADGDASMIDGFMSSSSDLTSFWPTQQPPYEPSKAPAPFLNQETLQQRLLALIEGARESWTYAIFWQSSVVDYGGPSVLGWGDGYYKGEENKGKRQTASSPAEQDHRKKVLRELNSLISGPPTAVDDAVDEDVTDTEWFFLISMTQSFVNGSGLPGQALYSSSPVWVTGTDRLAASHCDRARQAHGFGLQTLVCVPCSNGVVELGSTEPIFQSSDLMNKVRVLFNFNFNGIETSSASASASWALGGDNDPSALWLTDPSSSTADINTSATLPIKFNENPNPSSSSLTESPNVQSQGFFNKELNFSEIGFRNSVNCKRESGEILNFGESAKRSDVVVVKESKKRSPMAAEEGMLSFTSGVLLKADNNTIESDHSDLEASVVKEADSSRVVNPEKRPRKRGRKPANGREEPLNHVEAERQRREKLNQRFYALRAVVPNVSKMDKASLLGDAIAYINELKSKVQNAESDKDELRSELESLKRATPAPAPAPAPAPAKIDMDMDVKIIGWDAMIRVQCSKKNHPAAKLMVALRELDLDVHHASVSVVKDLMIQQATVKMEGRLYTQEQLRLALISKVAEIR

In PMC7775463:

Target: SmMYB1-cYFP (Salvia miltiorrhiza)
Test: split reporter; BiFC in 6-week-old N. benthamiana leaves; SmMYB1-cYFP and nYFP-SmMYC2 coexpressed by Agrobacterium infiltration; YFP examined by confocal microscopy 48 h after infiltration

Q: Which binding does the source give for nYFP-SmMYC2 (from UniProt A0AA48WN41) here?
A: Its binding is “binds”.

These are yes or no findings as the source states them, for the method shown. In cells and extracts the contact can be indirect. Binding can be weak; no strength is given.
